The target in assay [1] is T1, γ1-COP-ultraID (γ1-COP subunit of coatomer with ultraID fused to its C-terminus) (UniProt Q9QZE5).
T1 sequence: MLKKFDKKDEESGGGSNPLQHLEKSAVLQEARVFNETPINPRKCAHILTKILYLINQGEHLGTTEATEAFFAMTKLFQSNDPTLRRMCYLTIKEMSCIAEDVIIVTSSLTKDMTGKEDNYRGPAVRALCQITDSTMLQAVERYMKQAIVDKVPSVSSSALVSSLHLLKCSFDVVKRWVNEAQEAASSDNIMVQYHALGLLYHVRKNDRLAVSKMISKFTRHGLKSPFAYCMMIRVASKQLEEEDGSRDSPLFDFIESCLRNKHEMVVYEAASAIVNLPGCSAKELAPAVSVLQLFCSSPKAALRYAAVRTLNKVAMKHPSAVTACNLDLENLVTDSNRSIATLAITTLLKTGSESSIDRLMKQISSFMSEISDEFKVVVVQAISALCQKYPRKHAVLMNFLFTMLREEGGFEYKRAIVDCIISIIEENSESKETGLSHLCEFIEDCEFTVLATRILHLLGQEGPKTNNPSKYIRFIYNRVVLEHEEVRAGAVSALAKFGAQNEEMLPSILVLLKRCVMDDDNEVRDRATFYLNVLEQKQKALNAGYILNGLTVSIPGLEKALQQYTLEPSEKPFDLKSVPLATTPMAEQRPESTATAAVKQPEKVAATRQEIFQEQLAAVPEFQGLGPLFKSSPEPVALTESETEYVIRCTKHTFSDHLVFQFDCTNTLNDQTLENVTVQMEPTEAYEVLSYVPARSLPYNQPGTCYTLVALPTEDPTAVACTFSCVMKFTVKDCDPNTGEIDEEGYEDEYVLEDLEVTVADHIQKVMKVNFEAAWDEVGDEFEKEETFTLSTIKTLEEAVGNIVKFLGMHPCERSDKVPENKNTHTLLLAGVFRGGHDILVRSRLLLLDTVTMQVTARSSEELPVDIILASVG
Kind of assay: proximity labelling.

Assay [2] deals with T2, γ2-COP-ultraID (γ2-COP subunit of coatomer with ultraID fused to its C-terminus) (UniProt Q9QXK3).
T2 sequence: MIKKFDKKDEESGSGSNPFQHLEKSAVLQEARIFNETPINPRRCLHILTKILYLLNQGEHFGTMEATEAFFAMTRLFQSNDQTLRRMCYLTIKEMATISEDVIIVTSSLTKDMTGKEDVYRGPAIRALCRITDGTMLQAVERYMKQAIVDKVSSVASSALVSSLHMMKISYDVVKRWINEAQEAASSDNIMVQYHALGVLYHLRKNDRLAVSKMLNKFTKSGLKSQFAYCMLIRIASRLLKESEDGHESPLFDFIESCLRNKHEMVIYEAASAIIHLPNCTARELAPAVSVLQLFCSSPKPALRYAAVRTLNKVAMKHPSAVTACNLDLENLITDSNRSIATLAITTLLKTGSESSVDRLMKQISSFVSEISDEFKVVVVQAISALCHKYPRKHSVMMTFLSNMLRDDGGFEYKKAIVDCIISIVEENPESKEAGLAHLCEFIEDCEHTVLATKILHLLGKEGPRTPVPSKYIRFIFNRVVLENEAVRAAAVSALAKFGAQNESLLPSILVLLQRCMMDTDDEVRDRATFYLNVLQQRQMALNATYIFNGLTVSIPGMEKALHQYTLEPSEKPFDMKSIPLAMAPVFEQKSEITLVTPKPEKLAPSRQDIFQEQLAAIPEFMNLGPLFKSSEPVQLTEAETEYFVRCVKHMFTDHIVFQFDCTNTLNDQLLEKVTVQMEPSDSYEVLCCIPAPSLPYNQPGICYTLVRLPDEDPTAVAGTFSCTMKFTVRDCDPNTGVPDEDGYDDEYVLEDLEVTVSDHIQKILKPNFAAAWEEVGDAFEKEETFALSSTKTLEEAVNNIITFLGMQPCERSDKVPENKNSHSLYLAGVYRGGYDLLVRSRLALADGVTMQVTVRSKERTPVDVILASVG
Kind of assay: proximity labelling.

These are yes or no findings as the source states them, for the method shown. Binding seen in cells or lysates may run through a third protein. A yes stands for co-enrichment or nearness to the bait. Other partners may have been found. Tags and fused reporters may be left off the sequences shown.

B1: Scyl1 (protein, UniProt Q9EQC5 1-806)
chain: MWFFARDPVRDFPFELSPEPPEGGPPGPWILHRGRKKATGSAVSIFVYDVKPGAEEQTQVAKAAFKRLKTLRHPNILAYIDGLETEKCLHIVTEAVTPLGTYLKARAEAGGLKEQELSWGLHQIVKALSFLVNDCNLIHNNVCMAAVFVDRAGEWKLGGLDYMYSAQGNGGGPPSKGIPELEQYDPPELADSSSRAVREKWSADMWRLGCLIWEVFNGSLPRAAALRNPGKIPKSLVTHYCELVGANPKVRPNPARFLQNCRAPGGFMSNRFVETNLFLEEIQIKEPAEKQKFFQELSKSLDSFPEDFCRHKVLPQLLTAFEFGNAGAVVLTPLFKVGKSLRAEEYQEKIIPVVVKMFSSTDRAMRIRLLQQMEQFIQYLDEPTVNTQIFPHVTHGFLDTNPAIREQTVKSMLLLAPKLNEANLNVELMKHFARLQAKDDQGPIRCNTTVCLGKIGSYLSASTRHRVLTSAFSRATKDPFAPSRVAGVLGFAATHNLYSMDDCAHKILPVLCGLTVDPEKSVRDQAFKTIRSFLSKLESVSEDPTQLAEVEKDVHAASSPGTGGAAASWAGWAVTGVSSLTSKLIRAHPTPVPSDTTVPQRPVPEGNPAPAPALAQAIPATSGHWETQEDKDTAEDSATADRWDDEDWGSLEQEAESVLAQQDDWSAKGQGSRAGQINHPDHKSLESHWSSWEVEGSWDQGWQEPSSVEPPPEGTRLASEYNWGGAEPSDKGDPFAALSVRPSAQPRPDPDSWGEDNWEGLEAESRQVKAELARKKREERRREMEAKRAEKKTTKGPMKLGARKLD
For B1, the binding result in assay [1] and in assay [2] was “binds” each time.

For the origin of these results see doi:10.1101/2021.06.16.448656.
